Assay results: the supplement of paper PMC10849652
This is one part of the list.

Chains of the proteins cited; added tags and fusions are not shown. Lines headed by an entry give the natural chain unless they say otherwise; changes in a name come on top.
UniProt O00487, whole entry, looked up: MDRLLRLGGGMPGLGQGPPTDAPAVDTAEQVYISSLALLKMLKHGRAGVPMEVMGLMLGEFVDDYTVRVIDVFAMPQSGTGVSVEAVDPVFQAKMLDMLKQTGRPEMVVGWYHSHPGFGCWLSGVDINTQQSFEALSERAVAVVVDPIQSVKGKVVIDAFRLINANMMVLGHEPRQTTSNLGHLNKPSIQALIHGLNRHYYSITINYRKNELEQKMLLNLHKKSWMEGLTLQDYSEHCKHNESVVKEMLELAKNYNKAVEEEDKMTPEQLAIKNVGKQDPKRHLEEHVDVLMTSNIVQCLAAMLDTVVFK
UniProt P49721: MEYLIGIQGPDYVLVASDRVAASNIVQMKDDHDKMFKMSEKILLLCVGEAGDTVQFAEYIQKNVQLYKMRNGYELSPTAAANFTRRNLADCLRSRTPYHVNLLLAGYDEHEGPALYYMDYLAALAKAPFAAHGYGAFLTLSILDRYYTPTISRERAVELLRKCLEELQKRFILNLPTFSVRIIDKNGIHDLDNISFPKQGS
UniProt P49023, whole entry, looked up: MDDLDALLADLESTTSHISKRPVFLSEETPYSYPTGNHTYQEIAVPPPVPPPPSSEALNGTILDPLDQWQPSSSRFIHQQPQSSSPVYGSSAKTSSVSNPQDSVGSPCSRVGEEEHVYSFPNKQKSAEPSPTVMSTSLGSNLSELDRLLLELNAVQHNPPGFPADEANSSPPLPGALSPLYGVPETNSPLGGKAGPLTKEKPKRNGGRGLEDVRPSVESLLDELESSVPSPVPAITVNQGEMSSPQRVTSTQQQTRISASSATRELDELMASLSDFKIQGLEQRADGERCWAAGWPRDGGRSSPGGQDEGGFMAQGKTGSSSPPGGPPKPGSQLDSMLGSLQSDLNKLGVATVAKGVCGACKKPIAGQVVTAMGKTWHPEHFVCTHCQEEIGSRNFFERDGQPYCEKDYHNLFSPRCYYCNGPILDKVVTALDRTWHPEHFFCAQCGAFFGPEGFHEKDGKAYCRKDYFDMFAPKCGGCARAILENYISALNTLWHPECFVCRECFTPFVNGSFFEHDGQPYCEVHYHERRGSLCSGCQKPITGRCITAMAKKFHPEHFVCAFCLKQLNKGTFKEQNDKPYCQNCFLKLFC
UniProt Q8N8N7: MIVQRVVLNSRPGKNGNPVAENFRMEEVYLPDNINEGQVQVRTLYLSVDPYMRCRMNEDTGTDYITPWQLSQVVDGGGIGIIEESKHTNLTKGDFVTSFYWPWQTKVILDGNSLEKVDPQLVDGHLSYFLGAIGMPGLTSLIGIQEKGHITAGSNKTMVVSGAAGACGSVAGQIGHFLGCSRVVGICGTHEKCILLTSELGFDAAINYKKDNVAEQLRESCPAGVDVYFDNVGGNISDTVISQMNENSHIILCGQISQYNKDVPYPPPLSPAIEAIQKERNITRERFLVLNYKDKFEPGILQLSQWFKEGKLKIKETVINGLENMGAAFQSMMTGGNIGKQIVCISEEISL
UniProt Q9UHX1: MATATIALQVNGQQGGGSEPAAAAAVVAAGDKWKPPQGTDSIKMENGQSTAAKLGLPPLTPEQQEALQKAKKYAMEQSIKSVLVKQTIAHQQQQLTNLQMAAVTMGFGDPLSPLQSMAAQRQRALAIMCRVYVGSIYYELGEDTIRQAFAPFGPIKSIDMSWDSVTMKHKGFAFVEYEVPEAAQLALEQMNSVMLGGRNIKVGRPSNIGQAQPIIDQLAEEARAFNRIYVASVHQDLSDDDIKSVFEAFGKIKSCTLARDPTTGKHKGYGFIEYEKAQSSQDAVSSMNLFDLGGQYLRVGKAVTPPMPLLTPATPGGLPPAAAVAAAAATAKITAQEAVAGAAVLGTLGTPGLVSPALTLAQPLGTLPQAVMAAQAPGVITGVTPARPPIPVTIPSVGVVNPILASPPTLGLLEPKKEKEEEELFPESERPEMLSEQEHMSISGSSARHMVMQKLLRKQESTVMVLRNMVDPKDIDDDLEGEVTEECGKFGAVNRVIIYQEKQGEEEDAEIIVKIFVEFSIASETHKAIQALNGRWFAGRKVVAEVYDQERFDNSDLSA
UniProt P51665: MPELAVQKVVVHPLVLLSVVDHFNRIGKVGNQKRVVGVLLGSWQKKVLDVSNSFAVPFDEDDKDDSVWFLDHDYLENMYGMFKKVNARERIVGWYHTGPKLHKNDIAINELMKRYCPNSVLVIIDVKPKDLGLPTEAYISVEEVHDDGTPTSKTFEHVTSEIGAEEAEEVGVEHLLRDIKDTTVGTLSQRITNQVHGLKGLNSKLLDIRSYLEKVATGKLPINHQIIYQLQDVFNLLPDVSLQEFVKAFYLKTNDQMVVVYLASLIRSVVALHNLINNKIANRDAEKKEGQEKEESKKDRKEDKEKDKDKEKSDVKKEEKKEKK
UniProt Q15257: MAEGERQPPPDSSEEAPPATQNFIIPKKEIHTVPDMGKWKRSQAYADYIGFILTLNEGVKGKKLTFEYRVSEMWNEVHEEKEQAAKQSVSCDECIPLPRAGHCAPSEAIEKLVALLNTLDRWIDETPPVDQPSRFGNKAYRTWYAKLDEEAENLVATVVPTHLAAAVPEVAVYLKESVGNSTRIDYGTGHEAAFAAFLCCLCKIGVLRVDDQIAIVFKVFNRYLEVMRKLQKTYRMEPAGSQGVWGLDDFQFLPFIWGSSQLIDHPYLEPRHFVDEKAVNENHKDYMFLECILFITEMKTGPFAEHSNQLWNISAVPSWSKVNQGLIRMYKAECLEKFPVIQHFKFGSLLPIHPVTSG
UniProt P06454: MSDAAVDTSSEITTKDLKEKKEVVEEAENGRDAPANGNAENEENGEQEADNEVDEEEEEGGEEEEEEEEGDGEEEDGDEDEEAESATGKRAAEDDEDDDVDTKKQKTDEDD
UniProt Q14671: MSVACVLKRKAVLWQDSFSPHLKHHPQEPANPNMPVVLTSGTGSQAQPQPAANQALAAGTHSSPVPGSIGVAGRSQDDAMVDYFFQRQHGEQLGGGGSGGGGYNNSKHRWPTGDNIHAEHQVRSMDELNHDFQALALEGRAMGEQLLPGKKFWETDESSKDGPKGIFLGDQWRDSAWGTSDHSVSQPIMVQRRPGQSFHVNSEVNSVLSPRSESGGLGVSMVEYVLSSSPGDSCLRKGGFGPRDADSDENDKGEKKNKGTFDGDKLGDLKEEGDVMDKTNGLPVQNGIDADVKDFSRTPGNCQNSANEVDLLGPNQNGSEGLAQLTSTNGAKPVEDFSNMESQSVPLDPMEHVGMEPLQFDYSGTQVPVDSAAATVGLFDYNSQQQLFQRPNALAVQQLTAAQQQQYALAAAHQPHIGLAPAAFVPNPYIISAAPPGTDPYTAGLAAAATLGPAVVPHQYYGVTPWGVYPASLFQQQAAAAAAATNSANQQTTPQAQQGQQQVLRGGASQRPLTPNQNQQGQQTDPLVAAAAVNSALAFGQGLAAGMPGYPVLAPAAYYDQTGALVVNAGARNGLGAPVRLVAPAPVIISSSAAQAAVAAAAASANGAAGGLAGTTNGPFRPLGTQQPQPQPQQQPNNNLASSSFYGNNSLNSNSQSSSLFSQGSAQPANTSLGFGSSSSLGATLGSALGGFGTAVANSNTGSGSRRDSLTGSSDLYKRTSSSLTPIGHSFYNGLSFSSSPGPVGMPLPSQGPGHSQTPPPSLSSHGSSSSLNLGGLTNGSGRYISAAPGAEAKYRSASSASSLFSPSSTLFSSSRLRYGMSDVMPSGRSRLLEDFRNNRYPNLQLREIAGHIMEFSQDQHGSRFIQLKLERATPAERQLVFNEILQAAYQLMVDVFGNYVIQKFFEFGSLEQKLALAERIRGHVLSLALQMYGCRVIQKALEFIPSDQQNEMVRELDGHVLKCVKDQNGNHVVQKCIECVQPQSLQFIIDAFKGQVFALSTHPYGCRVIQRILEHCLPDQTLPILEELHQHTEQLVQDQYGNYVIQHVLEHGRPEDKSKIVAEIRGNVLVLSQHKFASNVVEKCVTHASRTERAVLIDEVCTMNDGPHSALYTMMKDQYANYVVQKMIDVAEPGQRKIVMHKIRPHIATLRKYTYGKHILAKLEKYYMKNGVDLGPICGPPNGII
UniProt Q9P2B2: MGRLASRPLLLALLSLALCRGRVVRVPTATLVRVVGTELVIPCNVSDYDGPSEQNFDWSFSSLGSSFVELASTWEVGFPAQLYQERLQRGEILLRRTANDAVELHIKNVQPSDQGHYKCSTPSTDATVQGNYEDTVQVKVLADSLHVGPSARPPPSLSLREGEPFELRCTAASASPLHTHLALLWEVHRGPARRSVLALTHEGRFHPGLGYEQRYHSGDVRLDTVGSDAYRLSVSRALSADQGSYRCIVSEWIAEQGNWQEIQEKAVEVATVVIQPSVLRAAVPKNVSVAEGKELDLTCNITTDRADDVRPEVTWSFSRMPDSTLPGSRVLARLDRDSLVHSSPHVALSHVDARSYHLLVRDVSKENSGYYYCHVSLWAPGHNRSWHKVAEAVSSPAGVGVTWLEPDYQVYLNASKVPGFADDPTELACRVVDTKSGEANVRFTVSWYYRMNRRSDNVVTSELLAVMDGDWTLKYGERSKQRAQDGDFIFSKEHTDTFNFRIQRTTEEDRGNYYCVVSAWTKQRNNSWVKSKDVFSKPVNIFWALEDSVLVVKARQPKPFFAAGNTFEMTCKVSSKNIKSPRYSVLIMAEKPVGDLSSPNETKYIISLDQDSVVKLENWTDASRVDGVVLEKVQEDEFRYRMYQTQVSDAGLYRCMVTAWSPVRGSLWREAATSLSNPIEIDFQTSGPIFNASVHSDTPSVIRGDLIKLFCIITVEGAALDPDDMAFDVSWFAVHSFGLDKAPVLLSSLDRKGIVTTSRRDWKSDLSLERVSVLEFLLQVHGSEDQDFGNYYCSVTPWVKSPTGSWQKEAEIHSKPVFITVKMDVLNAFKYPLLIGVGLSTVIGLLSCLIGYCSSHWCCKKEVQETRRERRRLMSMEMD
UniProt Q9Y3E5: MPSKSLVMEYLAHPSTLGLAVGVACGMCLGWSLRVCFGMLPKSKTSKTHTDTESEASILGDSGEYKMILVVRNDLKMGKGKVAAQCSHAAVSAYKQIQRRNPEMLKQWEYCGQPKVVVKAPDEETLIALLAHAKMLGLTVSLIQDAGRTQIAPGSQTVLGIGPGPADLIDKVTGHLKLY
UniProt P28072: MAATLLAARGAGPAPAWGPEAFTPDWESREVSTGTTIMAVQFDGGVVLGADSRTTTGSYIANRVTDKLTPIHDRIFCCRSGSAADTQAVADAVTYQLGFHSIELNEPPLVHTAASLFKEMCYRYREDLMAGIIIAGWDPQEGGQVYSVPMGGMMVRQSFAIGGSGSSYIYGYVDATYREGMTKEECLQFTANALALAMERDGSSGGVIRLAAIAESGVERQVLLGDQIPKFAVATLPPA
UniProt P62333, whole entry, looked up: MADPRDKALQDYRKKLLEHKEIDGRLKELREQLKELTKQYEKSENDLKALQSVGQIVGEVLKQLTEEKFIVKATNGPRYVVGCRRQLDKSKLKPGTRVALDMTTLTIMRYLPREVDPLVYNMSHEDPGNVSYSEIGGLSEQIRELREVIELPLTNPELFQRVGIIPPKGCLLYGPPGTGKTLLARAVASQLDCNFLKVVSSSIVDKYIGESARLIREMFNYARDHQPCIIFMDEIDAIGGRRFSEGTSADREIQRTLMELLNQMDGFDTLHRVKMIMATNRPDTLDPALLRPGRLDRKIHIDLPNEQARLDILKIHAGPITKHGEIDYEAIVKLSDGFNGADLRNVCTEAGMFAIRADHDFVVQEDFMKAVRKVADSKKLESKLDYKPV
UniProt Q05209: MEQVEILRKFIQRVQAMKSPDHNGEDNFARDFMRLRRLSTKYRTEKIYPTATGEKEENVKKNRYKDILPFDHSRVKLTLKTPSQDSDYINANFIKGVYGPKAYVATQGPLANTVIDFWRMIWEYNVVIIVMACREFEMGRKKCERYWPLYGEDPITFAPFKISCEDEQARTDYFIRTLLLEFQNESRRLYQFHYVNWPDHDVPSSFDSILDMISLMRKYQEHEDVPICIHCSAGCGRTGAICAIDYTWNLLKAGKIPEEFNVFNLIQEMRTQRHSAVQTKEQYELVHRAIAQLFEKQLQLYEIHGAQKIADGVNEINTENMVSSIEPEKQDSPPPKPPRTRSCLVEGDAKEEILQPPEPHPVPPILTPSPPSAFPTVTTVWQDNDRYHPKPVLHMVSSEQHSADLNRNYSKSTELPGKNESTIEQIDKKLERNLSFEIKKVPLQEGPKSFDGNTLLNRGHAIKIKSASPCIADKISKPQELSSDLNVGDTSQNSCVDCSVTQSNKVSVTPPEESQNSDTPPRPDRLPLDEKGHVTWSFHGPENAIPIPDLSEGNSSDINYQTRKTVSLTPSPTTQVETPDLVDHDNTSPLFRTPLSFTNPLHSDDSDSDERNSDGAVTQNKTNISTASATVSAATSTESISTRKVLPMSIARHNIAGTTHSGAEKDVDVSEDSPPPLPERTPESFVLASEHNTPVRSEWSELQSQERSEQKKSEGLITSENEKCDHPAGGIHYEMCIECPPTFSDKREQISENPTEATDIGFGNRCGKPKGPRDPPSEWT

Experiments:
Assay in all cases: log2 fold change, soluble protein after heating vs DMSO (PISA); higher = thermal stabilisation; K562 cells, 10 uM, 30 min; active = over 0.2 and 3.5 SD of the protein, either way, in both replicates (recomputed)
[1] = compound: CC1=C(C=C(C=C1)NC(=O)C2=CC(=CC=C2)C(C)(C)C#N)NC3=CC4=C(C=C3)N=CN(C4=O)C
Outline: (§1)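 Soluble protein was defined as the supernatant after 21,000xg for 90 min. It came from K562 cells at 2×10^6 cells/mL given 10 μM compound for 30 min, heated in aliquots for 3 min across 48°C-58°C, pooled, and extracted in PBS with 0.5% NP-40 at 4°C, and was quantified by TMTpro 16plex LC-MS/MS with equalised channel sums. Thermal stability against control samples, from duplicates, is reported as log2 fold change.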

[2] = compound: CC1=C(C=C(C=C1)NC(=O)C2=CC(=CC=C2)N(C)C)NC(=O)C3=CC=C(C=C3)O
Outline: as §1

[3] = compound: CC1=CC=C(C=C1)SC2=C3C=C(SC3=CN=C2)C(=O)N
Outline: as §1

[4] = compound: CC1=NC(=CC=C1)C2=C(N=C(N2)C(C)(C)C)C3=CC4=NC=CN=C4C=C3
Outline: as §1

Nexturastat A = compound: CCCCN(Cc1ccc(C(=O)NO)cc1)C(=O)Nc1ccccc1 [Nexturastat A]
Outline: as §1

vemurafenib = compound: CCCS(=O)(=O)Nc1ccc(F)c(C(=O)c2c[nH]c3ncc(-c4ccc(Cl)cc4)cc23)c1F [vemurafenib]
Outline: as §1

[5] = compound: CCCS(=O)(=O)Nc1ccc(F)c(C(=O)c2c[nH]c3ncc(Cl)cc23)c1F
Outline: as §1

[6] = compound: CCCc1cc(C)[nH]c(=O)c1CNC(=O)c1cc(-c2ccnc(N3CCN(C)CC3)c2)cc2c1cnn2C(C)C
Outline: as §1

givinostat = compound: CCN(CC)Cc1ccc2cc(COC(=O)Nc3ccc(C(=O)NO)cc3)ccc2c1 [givinostat]
Outline: as §1

barasertib = compound: CCN(CCCOc1ccc2c(Nc3cc(CC(=O)Nc4cccc(F)c4)[nH]n3)ncnc2c1)CCOP(=O)(O)O [barasertib]
Outline: as §1

[7] = compound: CC[C@@H]1C(=O)N(C)c2cnc(Nc3ccc(C(=O)NC4CCN(C)CC4)cc3OC)nc2N1C1CCCC1
Outline: as §1

volasertib = compound: CC[C@@H]1C(=O)N(C)c2cnc(Nc3ccc(C(=O)N[C@H]4CC[C@H](N5CCN(CC6CC6)CC5)CC4)cc3OC)nc2N1C(C)C [volasertib]
Outline: as §1

[8] = compound: CC[C@H](C)N1C=C(C2=C(C=C(C=C21)C3=CN=C(C=C3)N4CCNCC4)C(=O)NCC5=C(C=C(NC5=O)C)C)C
Outline: as §1

epoxomicin = compound: CC[C@H](C)[C@@H](C(=O)N[C@@H]([C@@H](C)O)C(=O)N[C@@H](CC(C)C)C(=O)[C@]1(CO1)C)NC(=O)[C@H]([C@@H](C)CC)N(C)C(=O)C [epoxomicin]
Outline: as §1

[9] = compound: CCn1c(C(=O)N(C2CC2)C2CC2)cc2c3c(ncn3C)c(Nc3cc(C)n(C)n3)nc21
Outline: as §1

[10] = compound: CCn1cc(-c2ccnc3[nH]c(-c4cccc(CN(C)C)c4)cc23)c(-c2ccc(NC(=O)N(C)C)cc2)n1
Outline: as §1

[11] = compound: CN(C)CC(=O)Nc1ccc2[nH]c(=O)c3ccccc3c2c1
Outline: as §1

rosiglitazone = compound: CN(CCOC1=CC=C(C=C1)C[C@H]2C(=O)NC(=O)S2)C3=CC=CC=N3 (racemic) [rosiglitazone]
Outline: as §1

[12] = compound: CN1C2=C(C3=C1C(=O)N(N=C3)CC4=CC(=CC=C4)N)SC(=C2)S(=O)C
Outline: as §1

[13] = compound: CN1CCC(CNc2ccc3ncc(-c4cccc(OC(F)(F)F)c4)n3n2)CC1
Outline: as §1

Measured: log2 fold change

PSMD14 (UniProt O00487)
inactive: [1] 0.061 | [2] 0.011 | [3] -0.04 | [4] -0.013 | Nexturastat A -0.037 | vemurafenib -0.038 | [5] -0.021 | [6] 0.031 | givinostat -0.06 | barasertib -0.037 | [7] 0.078 | volasertib 0.149 | [8] -0.009 | epoxomicin -0.295 | [9] 0.007 | [10] 0.032 | [11] 0.005 | rosiglitazone 0.016 | [12] 0.049 | [13] 0.042

PSMB2 (UniProt P49721)
inactive: [1] 0.02 | [2] -0.043 | [3] 0.174 | [4] 0.044 | Nexturastat A 0.04 | vemurafenib -0.056 | [5] -0.094 | [6] -0.021 | givinostat -0.057 | barasertib -0.03 | [7] 0.047 | volasertib 0.117 | [8] -0.051 | epoxomicin -0.151 | [9] 0.029 | [10] 0.059 | [11] -0.03 | rosiglitazone -0.028 | [12] 0.005 | [13] 0.089

PXN (UniProt P49023)
inactive: [1] 0.019 | [2] 0.018 | [3] 0 | [4] 0.02 | Nexturastat A -0.106 | vemurafenib -0.005 | [5] -0.015 | [6] -0.067 | givinostat -0.079 | barasertib -0.022 | [7] 0.018 | volasertib -0.024 | [8] -0.002 | epoxomicin 0.005 | [9] -0.011 | [10] -0.031 | [11] 0.012 | rosiglitazone 0.016 | [12] -0.083 | [13] 0.077

Random excerpt: 2 entries already listed.
PXN (UniProt P49023)
inactive: [1] 0.019 | [2] 0.018 | [3] 0 | [4] 0.02 | Nexturastat A -0.106 | vemurafenib -0.005 | [5] -0.015 | [6] -0.067 | givinostat -0.079 | barasertib -0.022 | [7] 0.018 | volasertib -0.024 | [8] -0.002 | epoxomicin 0.005 | [9] -0.011 | [10] -0.031 | [11] 0.012 | rosiglitazone 0.016 | [12] -0.083 | [13] 0.077

PSMB2 (UniProt P49721)
inactive: [1] 0.02 | [2] -0.043 | [3] 0.174 | [4] 0.044 | Nexturastat A 0.04 | vemurafenib -0.056 | [5] -0.094 | [6] -0.021 | givinostat -0.057 | barasertib -0.03 | [7] 0.047 | volasertib 0.117 | [8] -0.051 | epoxomicin -0.151 | [9] 0.029 | [10] 0.059 | [11] -0.03 | rosiglitazone -0.028 | [12] 0.005 | [13] 0.089

The listing continues.

PZP (UniProt P20742)
inactive: [1] -0.074 | [2] 0.665 | [3] 0.149 | [4] 0.01 | Nexturastat A -0.196 | vemurafenib 0.118 | [5] -0.054 | [6] -0.073 | givinostat 0.033 | barasertib -0.05 | [7] -0.024 | volasertib -0.11 | [8] 0.091 | epoxomicin -0.426 | [9] -0.095 | [10] -0.396 | [11] 0.034 | rosiglitazone 0.042 | [12] 0.102 | [13] -0.107

PSME4 (UniProt Q14997)
active: epoxomicin 0.35
inactive: [1] 0.017 | [2] -0.02 | [3] -0.024 | [4] -0.017 | Nexturastat A -0.034 | vemurafenib -0.014 | [5] -0.005 | [6] -0.043 | givinostat 0.022 | barasertib -0.007 | [7] 0.076 | volasertib 0.038 | [8] 0.04 | [10] -0.069 | [11] 0.02 | [12] 0.001 | [13] -0.137

PTGR2 (UniProt Q8N8N7)
active: [7] 1.1 | volasertib 1.27
inactive: [1] -0.022 | [2] -0.058 | [3] 0.022 | [4] -0.056 | Nexturastat A -0.175 | vemurafenib -0.022 | [5] -0.021 | [6] 0.234 | givinostat 0.139 | barasertib 0 | [8] 0.154 | epoxomicin -0.006 | [10] -0.117 | [11] 0.181 | [12] 0.025 | [13] -0.278

PUF60 (UniProt Q9UHX1)
inactive: [1] 0.046 | [2] -0.018 | [3] 0.043 | [4] 0.022 | Nexturastat A -0.003 | vemurafenib 0.034 | [5] 0.14 | [6] 0.009 | givinostat 0.022 | barasertib 0.025 | [7] -0.078 | [8] 0.033 | epoxomicin 0.028 | [10] -0.032 | [11] 0.007 | [12] -0.031 | [13] 0.051
active: volasertib -0.304

PSMD7 (UniProt P51665)
inactive: [1] -0.011 | [2] -0.005 | [3] -0.047 | [4] -0.038 | Nexturastat A 0.145 | vemurafenib -0.073 | [5] -0.029 | [6] 0.045 | givinostat -0.03 | barasertib -0.05 | [7] 0.027 | volasertib 0.205 | [8] 0 | epoxomicin -0.236 | [10] 0.027 | [11] -0.019 | [12] 0.083 | [13] 0.06

PTPA (UniProt Q15257)
inactive: [1] 0.001 | [2] -0.01 | [3] 0.004 | [4] 0.014 | Nexturastat A -0.006 | vemurafenib 0.044 | [5] -0.017 | [6] -0.046 | givinostat -0.005 | barasertib -0.007 | [7] -0.007 | volasertib 0.004 | [8] -0.012 | epoxomicin 0.051 | [10] -0.06 | [11] -0.002 | [12] -0.072 | [13] -0.009

PTMA (UniProt P06454)
inactive: [1] 0.133 | [2] -0.041 | [3] 0.053 | [4] 0.213 | Nexturastat A -0.077 | vemurafenib 0.05 | [5] -0.044 | [6] -0.008 | givinostat -0.022 | barasertib -0.013 | [7] -0.167 | volasertib 0.112 | [8] -0.064 | epoxomicin 0.2 | [10] -0.009 | [11] -0.01 | [12] -0.027 | [13] -0.052

PUM1 isoform 3 (UniProt Q14671)
inactive: [1] -0.011 | [2] 0.01 | [3] 0.011 | [4] 0.042 | Nexturastat A 0.06 | vemurafenib 0.02 | [5] 0.05 | [6] 0.002 | givinostat -0.03 | barasertib 0.011 | [7] -0.075 | [8] 0.036 | epoxomicin 0.023 | [10] -0.018 | [11] 0.015 | [12] 0.044 | [13] -0.123
active: volasertib -0.302

PTGFRN (UniProt Q9P2B2)
inactive: [1] -0.044 | [2] -0.025 | [3] 0.006 | [4] -0.012 | Nexturastat A -0.021 | vemurafenib 0.013 | [5] -0.045 | [6] -0.03 | givinostat 0.007 | barasertib -0.043 | [7] 0.032 | volasertib 0.008 | [8] 0 | epoxomicin 0.014 | [10] -0.049 | [11] -0.01 | [12] -0.104 | [13] 0.181

PTRH2 (UniProt Q9Y3E5)
inactive: [1] 0.009 | [2] -0.007 | [3] 0.032 | [4] 0.144 | Nexturastat A -0.078 | vemurafenib -0.05 | [5] -0.009 | [6] -0.025 | givinostat -0.064 | barasertib -0.022 | [7] -0.004 | volasertib -0.09 | [8] 0.013 | epoxomicin -0.018 | [10] -0.067 | [11] 0.057 | [12] -0.042 | [13] 0.018

PSMB6 (UniProt P28072)
inactive: [1] 0.002 | [2] 0.306 | [3] -0.036 | [4] -0.001 | Nexturastat A -0.019 | vemurafenib -0.038 | [5] -0.062 | [6] -0.024 | givinostat -0.025 | barasertib -0.04 | [7] 0.029 | volasertib 0.195 | [8] -0.055 | [10] 0.259 | [11] -0.019 | [12] 0.053 | [13] 0.03
active: epoxomicin -0.241

PSMD3 (UniProt O43242)
active: epoxomicin -0.337
inactive: [1] 0.023 | [2] 0.022 | [3] -0.052 | [4] -0.024 | Nexturastat A 0.065 | vemurafenib -0.06 | [5] -0.032 | [6] 0.034 | givinostat -0.028 | barasertib -0.066 | [7] 0.039 | volasertib 0.133 | [8] 0 | [10] 0.02 | [11] -0.01 | [12] 0.027 | [13] 0.067

PSMC6 (UniProt P62333)
active: epoxomicin -0.312
inactive: [1] 0 | [2] 0.022 | [3] -0.034 | [4] -0.043 | Nexturastat A 0.034 | vemurafenib -0.067 | [5] -0.069 | [6] 0.01 | givinostat -0.081 | barasertib -0.055 | [7] 0.033 | volasertib 0.178 | [8] -0.021 | [10] 0.029 | [11] -0.03 | [12] 0.009 | [13] 0.018

PTPN12 (UniProt Q05209)
inactive: [1] -0.026 | [2] -0.071 | [3] -0.037 | [4] -0.034 | Nexturastat A 0.162 | vemurafenib -0.002 | [5] 0.04 | [6] 0.07 | givinostat 0.072 | barasertib 0.127 | [7] -0.119 | [8] 0.063 | epoxomicin -0.012 | [10] 0.027 | [11] 0.015 | [12] 0.079 | [13] -0.043
active: volasertib -0.465
